Results as given in paper doi:10.1101/2021.02.09.430424.
Read-outs that look alike come from different tables or passages of the source. Results are given in words; binding and its absence hold for the method and conditions named. In cells and extracts the contact can be indirect. Some entries that bind do so weakly or less than the wild type. For part of these data: Where a sequence is shown, tags or fusion partners need not be part of it.

Protein sequences, listed by entry. Tags and fused reporters are not part of them. Residues count along the entry.
UniProt Q9NTX7, residues 92-168: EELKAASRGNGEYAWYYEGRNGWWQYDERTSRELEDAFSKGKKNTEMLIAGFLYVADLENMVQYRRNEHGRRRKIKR
UniProt Q13546: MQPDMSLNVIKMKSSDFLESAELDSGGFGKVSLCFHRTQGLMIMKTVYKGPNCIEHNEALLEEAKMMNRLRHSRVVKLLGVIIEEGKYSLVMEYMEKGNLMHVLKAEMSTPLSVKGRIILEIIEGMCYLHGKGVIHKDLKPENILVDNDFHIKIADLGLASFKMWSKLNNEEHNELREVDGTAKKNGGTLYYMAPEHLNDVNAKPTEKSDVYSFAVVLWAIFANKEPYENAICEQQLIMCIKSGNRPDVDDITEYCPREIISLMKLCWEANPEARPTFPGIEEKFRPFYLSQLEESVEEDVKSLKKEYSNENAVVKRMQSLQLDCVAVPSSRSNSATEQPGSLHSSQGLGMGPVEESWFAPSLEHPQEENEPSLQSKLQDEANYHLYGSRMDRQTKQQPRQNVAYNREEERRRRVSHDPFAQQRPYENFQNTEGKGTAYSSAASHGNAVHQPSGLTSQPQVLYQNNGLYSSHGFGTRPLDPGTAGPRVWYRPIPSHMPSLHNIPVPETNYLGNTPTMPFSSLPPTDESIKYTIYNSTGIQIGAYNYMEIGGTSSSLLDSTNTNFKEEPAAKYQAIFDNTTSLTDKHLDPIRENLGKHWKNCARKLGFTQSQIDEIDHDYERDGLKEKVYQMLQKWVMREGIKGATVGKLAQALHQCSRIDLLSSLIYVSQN
UniProt P11103: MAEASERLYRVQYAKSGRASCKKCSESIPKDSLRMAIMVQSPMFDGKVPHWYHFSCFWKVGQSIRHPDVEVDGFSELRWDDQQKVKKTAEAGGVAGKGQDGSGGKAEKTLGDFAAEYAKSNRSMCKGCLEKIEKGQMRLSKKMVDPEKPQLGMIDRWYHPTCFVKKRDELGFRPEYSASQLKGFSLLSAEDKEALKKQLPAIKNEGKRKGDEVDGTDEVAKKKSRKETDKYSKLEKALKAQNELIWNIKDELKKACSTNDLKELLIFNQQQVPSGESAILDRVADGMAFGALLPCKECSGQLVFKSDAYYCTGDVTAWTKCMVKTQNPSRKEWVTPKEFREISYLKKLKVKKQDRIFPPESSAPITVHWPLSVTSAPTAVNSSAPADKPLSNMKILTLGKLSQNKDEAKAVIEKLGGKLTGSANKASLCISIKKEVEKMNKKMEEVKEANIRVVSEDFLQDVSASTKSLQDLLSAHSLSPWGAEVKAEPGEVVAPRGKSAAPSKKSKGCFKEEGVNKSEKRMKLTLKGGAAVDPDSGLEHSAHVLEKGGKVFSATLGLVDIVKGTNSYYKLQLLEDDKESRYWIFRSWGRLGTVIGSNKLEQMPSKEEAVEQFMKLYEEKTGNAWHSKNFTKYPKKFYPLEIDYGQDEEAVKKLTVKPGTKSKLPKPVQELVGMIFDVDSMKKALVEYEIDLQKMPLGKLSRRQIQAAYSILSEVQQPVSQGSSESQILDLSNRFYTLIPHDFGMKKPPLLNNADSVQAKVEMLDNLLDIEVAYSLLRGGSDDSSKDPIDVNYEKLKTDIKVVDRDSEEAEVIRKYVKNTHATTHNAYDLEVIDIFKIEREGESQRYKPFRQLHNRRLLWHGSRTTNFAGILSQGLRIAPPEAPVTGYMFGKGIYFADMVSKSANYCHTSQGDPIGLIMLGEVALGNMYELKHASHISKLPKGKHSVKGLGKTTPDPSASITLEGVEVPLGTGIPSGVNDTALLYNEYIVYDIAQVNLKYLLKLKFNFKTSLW

T1: tankyrase-1 (endogenous, mouse) (mouse (endogenous in BMDMs, MDFs, MEFs)) (UniProt Q6PFX9)
T1 sequence: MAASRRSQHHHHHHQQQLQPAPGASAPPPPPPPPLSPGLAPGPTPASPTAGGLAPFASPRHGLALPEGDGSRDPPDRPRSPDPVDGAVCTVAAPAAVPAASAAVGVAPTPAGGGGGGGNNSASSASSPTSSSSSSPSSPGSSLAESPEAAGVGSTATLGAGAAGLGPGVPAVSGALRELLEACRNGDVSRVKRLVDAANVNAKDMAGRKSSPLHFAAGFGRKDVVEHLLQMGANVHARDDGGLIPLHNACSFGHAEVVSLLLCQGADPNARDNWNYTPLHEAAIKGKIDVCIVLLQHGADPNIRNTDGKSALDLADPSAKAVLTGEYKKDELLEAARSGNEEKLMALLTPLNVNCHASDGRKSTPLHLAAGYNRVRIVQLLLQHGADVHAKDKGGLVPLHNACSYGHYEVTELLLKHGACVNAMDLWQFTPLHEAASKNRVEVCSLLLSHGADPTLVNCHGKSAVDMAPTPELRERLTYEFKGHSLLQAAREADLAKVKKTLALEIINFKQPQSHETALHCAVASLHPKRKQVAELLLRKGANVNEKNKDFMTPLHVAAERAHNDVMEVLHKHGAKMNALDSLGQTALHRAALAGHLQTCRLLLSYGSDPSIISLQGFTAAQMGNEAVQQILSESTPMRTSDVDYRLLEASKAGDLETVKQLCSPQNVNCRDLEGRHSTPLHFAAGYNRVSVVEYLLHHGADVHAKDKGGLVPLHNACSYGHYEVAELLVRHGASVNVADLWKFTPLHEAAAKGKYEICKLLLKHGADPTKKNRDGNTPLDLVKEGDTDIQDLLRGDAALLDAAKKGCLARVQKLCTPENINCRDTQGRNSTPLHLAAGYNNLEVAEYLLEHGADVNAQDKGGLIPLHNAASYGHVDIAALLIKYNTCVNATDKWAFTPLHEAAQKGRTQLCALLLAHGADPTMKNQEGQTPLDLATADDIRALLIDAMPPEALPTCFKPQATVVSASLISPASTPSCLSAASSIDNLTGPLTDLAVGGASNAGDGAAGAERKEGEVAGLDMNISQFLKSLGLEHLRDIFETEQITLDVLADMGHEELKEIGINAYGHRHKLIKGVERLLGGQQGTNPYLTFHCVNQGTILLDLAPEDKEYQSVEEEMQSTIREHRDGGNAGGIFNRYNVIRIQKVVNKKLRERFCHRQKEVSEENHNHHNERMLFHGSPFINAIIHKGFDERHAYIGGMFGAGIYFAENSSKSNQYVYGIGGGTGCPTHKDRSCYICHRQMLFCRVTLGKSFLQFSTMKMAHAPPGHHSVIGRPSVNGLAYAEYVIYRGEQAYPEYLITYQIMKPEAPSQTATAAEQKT

T2: FADD (endogenous, mouse) (mouse (endogenous in BMDMs, MDFs, MEFs)) (UniProt Q61160)
T2 sequence: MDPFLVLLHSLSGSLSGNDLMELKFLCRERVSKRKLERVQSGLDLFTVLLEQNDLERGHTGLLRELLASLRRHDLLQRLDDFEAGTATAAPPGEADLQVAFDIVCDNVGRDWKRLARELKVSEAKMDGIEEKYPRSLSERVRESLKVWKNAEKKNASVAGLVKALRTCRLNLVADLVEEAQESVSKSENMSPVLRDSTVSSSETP

T3: RIPK1 (endogenous, mouse) (mouse (endogenous in BMDMs, MDFs, MEFs)) (UniProt Q60855)
T3 sequence: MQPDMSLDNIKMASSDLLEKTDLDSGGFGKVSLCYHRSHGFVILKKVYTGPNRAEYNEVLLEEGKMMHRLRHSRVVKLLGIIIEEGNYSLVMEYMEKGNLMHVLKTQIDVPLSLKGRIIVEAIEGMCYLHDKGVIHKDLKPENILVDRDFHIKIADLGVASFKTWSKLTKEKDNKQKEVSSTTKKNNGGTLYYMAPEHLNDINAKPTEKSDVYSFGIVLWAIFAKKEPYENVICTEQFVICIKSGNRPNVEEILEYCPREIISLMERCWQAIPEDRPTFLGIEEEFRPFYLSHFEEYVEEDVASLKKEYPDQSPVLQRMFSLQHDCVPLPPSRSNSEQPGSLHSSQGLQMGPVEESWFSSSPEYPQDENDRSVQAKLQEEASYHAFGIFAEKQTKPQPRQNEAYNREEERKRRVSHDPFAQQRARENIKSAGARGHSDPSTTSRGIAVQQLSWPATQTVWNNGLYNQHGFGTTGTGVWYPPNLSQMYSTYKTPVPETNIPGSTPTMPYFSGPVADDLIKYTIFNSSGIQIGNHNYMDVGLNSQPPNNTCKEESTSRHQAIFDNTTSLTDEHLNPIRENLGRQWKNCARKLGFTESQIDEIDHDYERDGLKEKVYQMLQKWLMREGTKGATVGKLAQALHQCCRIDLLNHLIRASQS

T4: cleaved caspase-8 (endogenous, mouse) (mouse (endogenous in BMDMs, MDFs, MEFs)) (UniProt O89110)
T4 sequence: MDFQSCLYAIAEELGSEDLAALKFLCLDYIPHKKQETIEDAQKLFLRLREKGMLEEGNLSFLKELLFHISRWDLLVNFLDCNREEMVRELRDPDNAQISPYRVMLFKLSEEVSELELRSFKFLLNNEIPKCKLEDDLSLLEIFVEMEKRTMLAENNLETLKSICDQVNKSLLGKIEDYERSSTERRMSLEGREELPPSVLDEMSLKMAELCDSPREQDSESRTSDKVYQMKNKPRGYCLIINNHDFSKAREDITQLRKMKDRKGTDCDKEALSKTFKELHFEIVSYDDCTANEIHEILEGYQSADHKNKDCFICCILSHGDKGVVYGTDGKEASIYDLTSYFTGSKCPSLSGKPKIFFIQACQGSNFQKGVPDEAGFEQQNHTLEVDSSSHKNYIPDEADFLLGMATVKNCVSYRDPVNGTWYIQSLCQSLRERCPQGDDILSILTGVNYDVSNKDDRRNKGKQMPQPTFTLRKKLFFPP


Key:
[1] = target: GST fusion of the wild-type WWE domain of RNF146 (human) (UniProt Q9NTX7); experiment: pull-down
[2] = target: GST fusion of the wild-type WWE domain of RNF146 (human) (UniProt Q9NTX7); experiment: pull-down; remark: listed apart in the source
[3] = target: T1, tankyrase-1 (endogenous, mouse) (mouse (endogenous in BMDMs, MDFs, MEFs)); experiment: co-IP
[4] = target: GST fusion of the wild-type WWE domain of RNF146 (human) (UniProt Q9NTX7); experiment: pull-down; remark: listed apart in the source
[5] = target: RIPK1 (endogenous, human) (human (endogenous in HT1080 and HT29)) (UniProt Q13546); experiment: co-IP
[6] = target: T2, FADD (endogenous, mouse) (mouse (endogenous in BMDMs, MDFs, MEFs)); experiment: co-IP
[7] = target: T3, RIPK1 (endogenous, mouse) (mouse (endogenous in BMDMs, MDFs, MEFs)); experiment: co-IP
[8] = target: T4, cleaved caspase-8 (endogenous, mouse) (mouse (endogenous in BMDMs, MDFs, MEFs)); experiment: co-IP

Molecule	binding [1]	binding [2]	binding [3]	binding [4]	further results
FADD (endogenous, mouse) (from UniProt Q61160 1-205)	binds	binds weakly	binds	binds	
TNKS1 (endogenous, human) (from UniProt O95271 1-1327) (enzyme)					binding [5]: binds
PARP1 (endogenous, mouse) (from UniProt P11103) (enzyme)				binds	
C-terminally 3x FLAG tagged caspase-8 from Casp8^C3FLAG knock-in mice (protein, UniProt O89110 1-480) MDFQSCLYAIAEELGSEDLAALKFLCLDYIPHKKQETIEDAQKLFLRLREKGMLEEGNLSFLKELLFHISRWDLLVNFLDCNREEMVRELRDPDNAQISPYRVMLFKLSEEVSELELRSFKFLLNNEIPKCKLEDDLSLLEIFVEMEKRTMLAENNLETLKSICDQVNKSLLGKIEDYERSSTERRMSLEGREELPPSVLDEMSLKMAELCDSPREQDSESRTSDKVYQMKNKPRGYCLIINNHDFSKAREDITQLRKMKDRKGTDCDKEALSKTFKELHFEIVSYDDCTANEIHEILEGYQSADHKNKDCFICCILSHGDKGVVYGTDGKEASIYDLTSYFTGSKCPSLSGKPKIFFIQACQGSNFQKGVPDEAGFEQQNHTLEVDSSSHKNYIPDEADFLLGMATVKNCVSYRDPVNGTWYIQSLCQSLRERCPQGDDILSILTGVNYDVSNKDDRRNKGKQMPQPTFTLRKKLFFPP	binds				

Now from value to molecule, other results behind:

binding [1]	binding [2]	binding [3]	binding [4]	Molecule	further results
binds			binds	tankyrase-1 (endogenous, mouse) (enzyme, UniProt Q6PFX9 1-1320) MAASRRSQHHHHHHQQQLQPAPGASAPPPPPPPPLSPGLAPGPTPASPTAGGLAPFASPRHGLALPEGDGSRDPPDRPRSPDPVDGAVCTVAAPAAVPAASAAVGVAPTPAGGGGGGGNNSASSASSPTSSSSSSPSSPGSSLAESPEAAGVGSTATLGAGAAGLGPGVPAVSGALRELLEACRNGDVSRVKRLVDAANVNAKDMAGRKSSPLHFAAGFGRKDVVEHLLQMGANVHARDDGGLIPLHNACSFGHAEVVSLLLCQGADPNARDNWNYTPLHEAAIKGKIDVCIVLLQHGADPNIRNTDGKSALDLADPSAKAVLTGEYKKDELLEAARSGNEEKLMALLTPLNVNCHASDGRKSTPLHLAAGYNRVRIVQLLLQHGADVHAKDKGGLVPLHNACSYGHYEVTELLLKHGACVNAMDLWQFTPLHEAASKNRVEVCSLLLSHGADPTLVNCHGKSAVDMAPTPELRERLTYEFKGHSLLQAAREADLAKVKKTLALEIINFKQPQSHETALHCAVASLHPKRKQVAELLLRKGANVNEKNKDFMTPLHVAAERAHNDVMEVLHKHGAKMNALDSLGQTALHRAALAGHLQTCRLLLSYGSDPSIISLQGFTAAQMGNEAVQQILSESTPMRTSDVDYRLLEASKAGDLETVKQLCSPQNVNCRDLEGRHSTPLHFAAGYNRVSVVEYLLHHGADVHAKDKGGLVPLHNACSYGHYEVAELLVRHGASVNVADLWKFTPLHEAAAKGKYEICKLLLKHGADPTKKNRDGNTPLDLVKEGDTDIQDLLRGDAALLDAAKKGCLARVQKLCTPENINCRDTQGRNSTPLHLAAGYNNLEVAEYLLEHGADVNAQDKGGLIPLHNAASYGHVDIAALLIKYNTCVNATDKWAFTPLHEAAQKGRTQLCALLLAHGADPTMKNQEGQTPLDLATADDIRALLIDAMPPEALPTCFKPQATVVSASLISPASTPSCLSAASSIDNLTGPLTDLAVGGASNAGDGAAGAERKEGEVAGLDMNISQFLKSLGLEHLRDIFETEQITLDVLADMGHEELKEIGINAYGHRHKLIKGVERLLGGQQGTNPYLTFHCVNQGTILLDLAPEDKEYQSVEEEMQSTIREHRDGGNAGGIFNRYNVIRIQKVVNKKLRERFCHRQKEVSEENHNHHNERMLFHGSPFINAIIHKGFDERHAYIGGMFGAGIYFAENSSKSNQYVYGIGGGTGCPTHKDRSCYICHRQMLFCRVTLGKSFLQFSTMKMAHAPPGHHSVIGRPSVNGLAYAEYVIYRGEQAYPEYLITYQIMKPEAPSQTATAAEQKT	binding [6]: binds; binding [7]: binds; binding [8]: binds
	binds weakly	binds	binds	cleaved caspase-8 (endogenous, mouse) (protein, UniProt O89110 1-480) MDFQSCLYAIAEELGSEDLAALKFLCLDYIPHKKQETIEDAQKLFLRLREKGMLEEGNLSFLKELLFHISRWDLLVNFLDCNREEMVRELRDPDNAQISPYRVMLFKLSEEVSELELRSFKFLLNNEIPKCKLEDDLSLLEIFVEMEKRTMLAENNLETLKSICDQVNKSLLGKIEDYERSSTERRMSLEGREELPPSVLDEMSLKMAELCDSPREQDSESRTSDKVYQMKNKPRGYCLIINNHDFSKAREDITQLRKMKDRKGTDCDKEALSKTFKELHFEIVSYDDCTANEIHEILEGYQSADHKNKDCFICCILSHGDKGVVYGTDGKEASIYDLTSYFTGSKCPSLSGKPKIFFIQACQGSNFQKGVPDEAGFEQQNHTLEVDSSSHKNYIPDEADFLLGMATVKNCVSYRDPVNGTWYIQSLCQSLRERCPQGDDILSILTGVNYDVSNKDDRRNKGKQMPQPTFTLRKKLFFPP	
